# Data reported in the supplement of paper PMC8728848.
# This is one part of the list.
# Legend:
# Test in all cases: glycan array binding signal (z-score within array); higher = stronger binding
# Details in all cases: glycan notation: IUPAC condensed, linker removed
# [1] = biological target: Gal3S(b1-4)[Fuc(a1-3)]Glc
# Method in brief: (§1)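 Negative Z-scores can be read as non-binding. The Z-score is calculated within each array and then averaged across arrays of one protein sequence at different concentrations or buffers and across linkers. Arrays, 3228 in all, were curated from the Consortium for Functional Glycomics database and kept only where the protein sequence was available.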
# [2] = biological target: Gal3S(b1-4)[Fuc(a1-3)]Glc6S
# Method in brief: as §1
# [3] = biological target: Gal3S4S(b1-4)GlcNAc
# Method in brief: as §1
# [4] = biological target: Gal3S6S(b1-4)GlcNAc
# Method in brief: as §1
# [5] = biological target: Gal3S6S(b1-4)GlcNAc6S
# Method in brief: as §1
# [6] = biological target: Gal4S(b1-4)GlcNAc
# Method in brief: as §1
# [7] = biological target: Gal4S6S(b1-4)GlcNAc
# Method in brief: as §1
# [8] = biological target: Gal6S(b1-4)Glc
# Method in brief: as §1
# [9] = biological target: Gal6S(b1-4)Glc6S
# Method in brief: as §1
# [10] = biological target: Gal6S(b1-4)GlcNAc
# Method in brief: as §1
# [11] = biological target: Gal6S(b1-4)GlcNAc6S
# Method in brief: as §1
# [12] = biological target: GalNAc(a1-3)Gal
# Method in brief: as §1
# [13] = biological target: GalNAc(a1-3)GalNAc
# Method in brief: as §1
# [14] = biological target: GalNAc(a1-3)GalNAc(a1-3)Gal(a1-4)Gal(b1-4)GlcNAc
# Method in brief: as §1
# [15] = biological target: GalNAc(b1-3)Gal
# Method in brief: as §1
# [16] = biological target: GalNAc(b1-3)Gal(a1-4)Gal(b1-4)GlcNAc
# Method in brief: as §1
# [17] = biological target: GalNAc(b1-3)Gal(a1-4)Gal(b1-4)GlcNAc(b1-3)Gal(b1-4)Glc
# Method in brief: as §1
# [18] = biological target: GalNAc(b1-3)Gal(a1-6)Gal(b1-4)Glc
# Method in brief: as §1
# [19] = biological target: GalNAc(b1-3)GalNAc
# Method in brief: as §1
# [20] = biological target: GalNAc(b1-4)GlcNAc
# Method in brief: as §1
# [21] = biological target: GalNAc(b1-4)GlcNAc(b1-2)Man(a1-3)[GalNAc(b1-4)GlcNAc(b1-2)Man(a1-6)]Man(b1-4)GlcNAc(b1-4)GlcNAc
# Method in brief: as §1
# [22] = biological target: Glc(a1-4)Glc
# Method in brief: as §1
# [23] = biological target: Glc(a1-6)Glc(a1-6)Glc
# Method in brief: as §1
# [24] = biological target: Glc(b1-4)Glc
# Method in brief: as §1
# [25] = biological target: Glc(b1-6)Glc
# Method in brief: as §1
# [26] = biological target: GlcA(b1-3)Gal
# Method in brief: as §1
# [27] = biological target: GlcA(b1-3)GlcNAc
# Method in brief: as §1
# [28] = biological target: GlcA(b1-6)Gal
# Method in brief: as §1
# [29] = biological target: GlcNAc(a1-3)Gal(b1-4)GlcNAc
# Method in brief: as §1
# [30] = biological target: GlcNAc(a1-4)Gal(b1-3)GlcNAc
# Method in brief: as §1
# [31] = biological target: GlcNAc(a1-4)Gal(b1-4)GalNAc
# Method in brief: as §1
# [32] = biological target: GlcNAc(a1-4)Gal(b1-4)GlcNAc
# Method in brief: as §1
# [33] = biological target: GlcNAc(a1-4)Gal(b1-4)GlcNAc(b1-3)Gal(b1-4)Glc
# Method in brief: as §1
# [34] = biological target: GlcNAc(a1-4)Gal(b1-4)GlcNAc(b1-3)Gal(b1-4)GlcNAc
# Method in brief: as §1
# [35] = biological target: GlcNAc(a1-4)Gal(b1-4)GlcNAc(b1-3)Gal(b1-4)GlcNAc(b1-3)Gal(b1-4)GlcNAc
# Method in brief: as §1
# [36] = biological target: GlcNAc(a1-4)Gal(b1-4)GlcNAc(b1-3)Gal(b1-4)[Fuc(a1-3)]GlcNAc(b1-3)Gal(b1-4)[Fuc(a1-3)]GlcNAc
# Method in brief: as §1
# [37] = biological target: GlcNAc(a1-6)Gal(b1-4)GlcNAc
# Method in brief: as §1
# [38] = biological target: GlcNAc(b1-2)Gal(b1-3)GalNAc
# Method in brief: as §1
# [39] = biological target: GlcNAc(b1-2)Man(a1-3)[GlcNAc(b1-2)Man(a1-6)]Man(b1-4)GlcNAc(b1-4)GlcNAc
# Method in brief: as §1
# [40] = biological target: GlcNAc(b1-2)Man(a1-3)[GlcNAc(b1-2)Man(a1-6)]Man(b1-4)GlcNAc(b1-4)[Fuc(a1-6)]GlcNAc
# Method in brief: as §1
# [41] = biological target: GlcNAc(b1-2)[GlcNAc(b1-4)]Man(a1-3)[GlcNAc(b1-2)Man(a1-6)]Man(b1-4)GlcNAc(b1-4)GlcNAc
# Method in brief: as §1
# [42] = biological target: GlcNAc(b1-3)Gal
# Method in brief: as §1
# [43] = biological target: GlcNAc(b1-3)Gal(b1-3)GalNAc
# Method in brief: as §1
# [44] = biological target: GlcNAc(b1-3)Gal(b1-4)Glc
# Method in brief: as §1
# [45] = biological target: GlcNAc(b1-3)Gal(b1-4)GlcNAc
# Method in brief: as §1
# [46] = biological target: GlcNAc(b1-3)Gal(b1-4)GlcNAc(b1-3)Gal(b1-4)GlcNAc
# Method in brief: as §1
# [47] = biological target: GlcNAc(b1-3)GalNAc
# Method in brief: as §1
# [48] = biological target: GlcNAc(b1-3)Man
# Method in brief: as §1
# [49] = biological target: GlcNAc(b1-3)[GlcNAc(b1-4)][GlcNAc(b1-6)]GlcNAc
# Method in brief: as §1
# [50] = biological target: GlcNAc(b1-3)[GlcNAc(b1-6)]Gal(b1-4)GlcNAc
# Method in brief: as §1
# [51] = biological target: GlcNAc(b1-3)[GlcNAc(b1-6)]GalNAc
# Method in brief: as §1
# [52] = biological target: GlcNAc(b1-4)Gal(b1-4)GlcNAc
# Method in brief: as §1
# [53] = biological target: GlcNAc(b1-4)GlcNAc
# Method in brief: as §1
# [54] = biological target: GlcNAc(b1-4)GlcNAc(b1-4)GlcNAc
# Method in brief: as §1
# [55] = biological target: GlcNAc(b1-4)GlcNAc(b1-4)GlcNAc(b1-4)GlcNAc(b1-4)GlcNAc
# Method in brief: as §1
# [56] = biological target: GlcNAc(b1-4)GlcNAc(b1-4)GlcNAc(b1-4)GlcNAc(b1-4)GlcNAc(b1-4)GlcNAc
# Method in brief: as §1
# [57] = biological target: GlcNAc(b1-4)[GlcNAc(b1-6)]GalNAc
# Method in brief: as §1
# [58] = biological target: GlcNAc(b1-6)Gal(b1-4)GlcNAc
# Method in brief: as §1
# [59] = biological target: GlcNAc(b1-6)GalNAc
# Method in brief: as §1
# [60] = biological target: GlcNAc3Prop(b1-4)GlcNAc
# Method in brief: as §1
# [61] = biological target: GlcNAc6S(b1-3)Gal(b1-4)GlcNAc
# Method in brief: as §1
# [62] = biological target: Kdn(a2-3)Gal(b1-3)GalNAc
# Method in brief: as §1
# [63] = biological target: Kdn(a2-3)Gal(b1-3)GlcNAc
# Method in brief: as §1
# [64] = biological target: Kdn(a2-3)Gal(b1-4)Glc
# Method in brief: as §1
# [65] = biological target: Kdn(a2-3)Gal(b1-4)GlcNAc
# Method in brief: as §1
# [66] = biological target: Kdn(a2-3)Gal(b1-4)[Fuc(a1-3)]GlcNAc
# Method in brief: as §1
# [67] = biological target: Kdn(a2-6)Gal(b1-4)GlcNAc
# Method in brief: as §1
# [68] = biological target: Man(a1-2)Man(a1-2)Man(a1-3)Man
# Method in brief: as §1
# [69] = biological target: Man(a1-2)Man(a1-2)Man(a1-6)[Man(a1-3)]Man
# Method in brief: as §1
# [70] = biological target: Man(a1-2)Man(a1-3)Man
# Method in brief: as §1
# [71] = biological target: Man(a1-2)Man(a1-3)[Man(a1-2)Man(a1-6)]Man
# Method in brief: as §1
# [72] = biological target: Man(a1-2)Man(a1-3)[Man(a1-2)Man(a1-6)]Man(a1-6)[Man(a1-2)Man(a1-2)Man(a1-3)]Man
# Method in brief: as §1
# [73] = biological target: Man(a1-2)Man(a1-3)[Man(a1-2)Man(a1-6)]Man(a1-6)[Man(a1-2)Man(a1-2)Man(a1-3)]Man(b1-4)GlcNAc(b1-4)GlcNAc
# Method in brief: as §1
# [74] = biological target: Man(a1-2)Man(a1-3)[Man(a1-6)]Man(a1-6)[Man(a1-2)Man(a1-3)]Man(b1-4)GlcNAc(b1-4)GlcNAc
# Method in brief: as §1
# [75] = biological target: Man(a1-2)Man(a1-6)[Man(a1-3)]Man(a1-6)[Man(a1-2)Man(a1-2)Man(a1-3)]Man
# Method in brief: as §1
binder,measurement,setting,value
"AcfC (Vibrio cholerae), Q57410 (protein) MKSKNRFLLISLLSFSTSVFADVNLYGPGGPHVPLIKVAESFEKSQSKRVNITFGPQATWNDKAKKNADILFGASEHSALAIAEGHSERFSKFNIHPVFMREAIILVKKGNPKNIKGMADLLKPGIGIVVNDGAGVSNTSGTAVWEDSVGRMKNVEKLQAFRSNIHVFAPNSGSARKAFVDGEDIDAWITWVDWAIANPTIGDMVRMEDEYRIYRDFNVVLAKNPSSEAIDFFDYLTKSKDAEAIFQHYGWFK",glycan array binding signal (z-score),[1],-0.154
same,glycan array binding signal (z-score),[2],1.71
same,glycan array binding signal (z-score),[3],0.113
same,glycan array binding signal (z-score),[4],0.605
same,glycan array binding signal (z-score),[5],0.18
same,glycan array binding signal (z-score),[6],0.111
same,glycan array binding signal (z-score),[7],1.37
same,glycan array binding signal (z-score),[8],0.52
same,glycan array binding signal (z-score),[9],-0.014
same,glycan array binding signal (z-score),[10],0.576
same,glycan array binding signal (z-score),[11],0.357
same,glycan array binding signal (z-score),[12],0.334
same,glycan array binding signal (z-score),[13],-1.25
same,glycan array binding signal (z-score),[14],-0.157
same,glycan array binding signal (z-score),[15],0.219
same,glycan array binding signal (z-score),[16],1.38
same,glycan array binding signal (z-score),[17],0.025
same,glycan array binding signal (z-score),[18],-1.05
same,glycan array binding signal (z-score),[19],0.05
same,glycan array binding signal (z-score),[20],0.088
same,glycan array binding signal (z-score),[21],1.96
same,glycan array binding signal (z-score),[22],-0.692
same,glycan array binding signal (z-score),[23],-1.29
same,glycan array binding signal (z-score),[24],0.476
same,glycan array binding signal (z-score),[25],-0.38
same,glycan array binding signal (z-score),[26],-0.742
same,glycan array binding signal (z-score),[27],-0.306
same,glycan array binding signal (z-score),[28],-0.431
same,glycan array binding signal (z-score),[29],-0.288
same,glycan array binding signal (z-score),[30],0.098
same,glycan array binding signal (z-score),[31],-1.67
same,glycan array binding signal (z-score),[32],0.224
same,glycan array binding signal (z-score),[33],0.706
same,glycan array binding signal (z-score),[34],-0.733
same,glycan array binding signal (z-score),[35],1.1
same,glycan array binding signal (z-score),[36],0.779
same,glycan array binding signal (z-score),[37],-0.288
same,glycan array binding signal (z-score),[38],-0.601
same,glycan array binding signal (z-score),[39],0.375
same,glycan array binding signal (z-score),[40],1.06
same,glycan array binding signal (z-score),[41],-1.5
same,glycan array binding signal (z-score),[42],-1.12
same,glycan array binding signal (z-score),[43],0.911
same,glycan array binding signal (z-score),[44],-0.701
same,glycan array binding signal (z-score),[45],-1.75
same,glycan array binding signal (z-score),[46],-0.8
same,glycan array binding signal (z-score),[47],-0.63
same,glycan array binding signal (z-score),[48],-0.42
same,glycan array binding signal (z-score),[49],0.234
same,glycan array binding signal (z-score),[50],-0.193
same,glycan array binding signal (z-score),[51],-0.088
same,glycan array binding signal (z-score),[52],-1.16
same,glycan array binding signal (z-score),[53],-0.224
same,glycan array binding signal (z-score),[54],-1.53
same,glycan array binding signal (z-score),[55],-1.07
same,glycan array binding signal (z-score),[56],-1.21
same,glycan array binding signal (z-score),[57],1.25
same,glycan array binding signal (z-score),[58],-0.452
same,glycan array binding signal (z-score),[59],-0.178
same,glycan array binding signal (z-score),[60],0.164
same,glycan array binding signal (z-score),[61],-1.22
same,glycan array binding signal (z-score),[62],-0.511
same,glycan array binding signal (z-score),[63],0.128
same,glycan array binding signal (z-score),[64],0.616
same,glycan array binding signal (z-score),[65],-0.338
same,glycan array binding signal (z-score),[66],-0.465
same,glycan array binding signal (z-score),[67],-0.748
same,glycan array binding signal (z-score),[68],-0.13
same,glycan array binding signal (z-score),[69],-0.753
same,glycan array binding signal (z-score),[70],-0.096
same,glycan array binding signal (z-score),[71],-0.337
same,glycan array binding signal (z-score),[72],-0.506
same,glycan array binding signal (z-score),[73],0.074
same,glycan array binding signal (z-score),[74],-0.459
same,glycan array binding signal (z-score),[75],-0.222

# Exported with tabs: part of the list above.
binder	measurement	setting	value
AcfC (Vibrio cholerae), Q57410 (protein) MKSKNRFLLISLLSFSTSVFADVNLYGPGGPHVPLIKVAESFEKSQSKRVNITFGPQATWNDKAKKNADILFGASEHSALAIAEGHSERFSKFNIHPVFMREAIILVKKGNPKNIKGMADLLKPGIGIVVNDGAGVSNTSGTAVWEDSVGRMKNVEKLQAFRSNIHVFAPNSGSARKAFVDGEDIDAWITWVDWAIANPTIGDMVRMEDEYRIYRDFNVVLAKNPSSEAIDFFDYLTKSKDAEAIFQHYGWFK	glycan array binding signal (z-score)	[3]	0.113
same	glycan array binding signal (z-score)	[4]	0.605
same	glycan array binding signal (z-score)	[5]	0.18
same	glycan array binding signal (z-score)	[6]	0.111
